Data source: PubChem BioAssay AID1259254 (NCATS, 2017)
Here is one part, drawn at random, of about 59,000 reagents tested. About 1,550 of all reagents (2.6%) were called active. 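G2 share is only a proxy for re-replication; each gene was hit by three separate siRNAs, and active genes were retested.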 The raw values are shown without normalisation. A number with no mark means an inactive call. The numbers tell different reagents against one gene apart. Not stated in the record: the amount of reagent.

- Purpose: 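Genome-wide screen for genes that prevent DNA re-replication in cancer cells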 (primary screen)
- System: human HCT116 colorectal cancer cells
- Reagents: single siRNA against human genes
- Time to read-out: 3 days
- Measured: 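Imaged Hoechst DNA stain sorts each cell into a cycle phase by DNA amount; per plate, G2 fraction set to 0% for non-targeting and 100% for GMNN siRNA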
- Scale: G2 robust z-score and G2 cells, % of GMNN control: higher = more G2 cells, more excess DNA replication; raw share of cells in G2: higher = larger share of cells with G2 DNA content
- Hit rule: 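Active siRNAs have a G2 robust z of 5 or more median absolute deviations over the median, which in these data means about 38% or higher of GMNN control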

Gene | reagent | G2 robust z-score | G2 cells, % of GMNN control | raw share of cells in G2 (%)
TMEM129 | 1 | 1.02 | 10.1 | 8.39
TMEM129 | 2 | 0.153 | 4.04 | 4.27
TMEM129 | 3 | -0.248 | 1.22 | 3.31
CCDC172 | 1 | 0.216 | 4.48 | 5.53
CCDC172 | 2 | 0.378 | 5.63 | 5.72
CCDC172 | 3 | -0.471 | -0.343 | 4.05
MTMR12 | 1 | -0.0107 | 2.89 | 5.74
MTMR12 | 2 | -1.15 | -5.12 | 2.76
MTMR12 | 3 | 0.531 | 6.7 | 5.51
ZNF140 | 1 | 4.33 | 33.4 | 20.9
ZNF140 | 2 | 1.56 | 13.9 | 9.18
ZNF140 | 3 | -1.21 | -5.55 | 1.68
IER5 | 1 | 0.34 | 5.36 | 5.9
IER5 | 2 | 0.565 | 6.95 | 7.18
IER5 | 3 | -0.719 | -2.09 | 2.59
GULP1 | 1 | -0.497 | -0.527 | 3.6
GULP1 | 2 | -1.36 | -6.58 | 2.97
GULP1 | 3 | -0.488 | -0.465 | 4.07
BCHE | 1 | -0.0231 | 2.8 | 5.67
BCHE | 2 | -0.566 | -1.02 | 4.71
BCHE | 3 | 0.345 | 5.4 | 6
IQCF3 | 1 | 0.0272 | 3.16 | 6.1
IQCF3 | 2 | 0.329 | 5.28 | 5.73
IQCF3 | 3 | 0.1 | 3.67 | 4.97
OXGR1 | 1 | -1.06 | -4.46 | 4.25
OXGR1 | 2 | 1.24 | 11.7 | 8.6
OXGR1 | 3 | 1.57 | 14 | 7.57
GJB2 | 1 | 0.324 | 5.25 | 7.31
GJB2 | 2 | 1.14 | 11 | 7.83
GJB2 | 3 | -0.629 | -1.46 | 2.58
ZNF91 | 1 | 0.928 | 9.5 | 6.69
ZNF91 | 2 | -0.0765 | 2.43 | 7.07
ZNF91 | 3 | -0.531 | -0.771 | 3.02
ACP5 | 1 | 0.956 | 9.69 | 7.95
ACP5 | 2 | 0.821 | 8.74 | 6.94
ACP5 | 3 | -0.551 | -0.911 | 3.22
FTMT | 1 | 7.73 (active) | 57.4 | 27.1
FTMT | 2 | 0.391 | 5.72 | 5.04
FTMT | 3 | -0.723 | -2.12 | 1.2
POC1A | 1 | 0.393 | 5.73 | 5.3
POC1A | 2 | 5.12 (active) | 39 | 19.1
POC1A | 3 | 6.71 (active) | 50.2 | 25.7
RAPGEF5 | 1 | -0.548 | -0.885 | 2.9
RAPGEF5 | 2 | 0.341 | 5.37 | 6.93
RAPGEF5 | 3 | 0.284 | 4.96 | 7.08

Continued (3 carried over from the part before).
Gene | reagent | G2 robust z-score | G2 cells, % of GMNN control | raw share of cells in G2 (%)
RAPGEF5 | 1 | -0.548 | -0.885 | 2.9
RAPGEF5 | 2 | 0.341 | 5.37 | 6.93
RAPGEF5 | 3 | 0.284 | 4.96 | 7.08
NKAP | 1 | -1.03 | -4.28 | 2.72
NKAP | 2 | -0.281 | 0.99 | 5.05
NKAP | 3 | -0.744 | -2.27 | 2.1
PRF1 | 1 | 0.779 | 8.45 | 8.57
PRF1 | 2 | -0.202 | 1.54 | 4.83
PRF1 | 3 | 3.33 | 26.4 | 12.9
ERC2 | 1 | 0.982 | 9.87 | 7.47
ERC2 | 2 | 2.4 | 19.9 | 10.5
ERC2 | 3 | 1.8 | 15.6 | 13.3
SVOP | 1 | 0.404 | 5.81 | 6.75
SVOP | 2 | 2.65 | 21.6 | 15.9
SVOP | 3 | 6.04 (active) | 45.5 | 20.7
DNAH17 | 1 | 4.07 | 31.6 | 15.2
DNAH17 | 2 | -0.112 | 2.18 | 3.89
DNAH17 | 3 | -0.0846 | 2.37 | 3.99
LCN1P2 | 1 | 2.75 | 22.3 | 13
LCN1P2 | 2 | -0.588 | -1.17 | 2.74
LCN1P2 | 3 | -0.199 | 1.56 | 3.24
NOXA1 | 1 | 0.144 | 3.98 | 5.13
NOXA1 | 2 | 2.15 | 18.1 | 13.6
NOXA1 | 3 | -0.303 | 0.838 | 6.06
CENPX | 1 | -0.272 | 1.06 | 3.1
CENPX | 2 | 0.688 | 7.8 | 6.4
CENPX | 3 | 0.287 | 4.99 | 4.63
